According to the supplement of paper PMC8967900:

How the values were obtained:
Assay in all cases: selective drug sensitivity score (sDSS, relative to normal bone marrow) (sDSS (score)); higher = more potent and effective on the cell line relative to normal bone marrow cells
Conditions in all cases: 72 h
[1] = tested on: 380
[2] = tested on: 697
[3] = tested on: ALL-PO
[4] = tested on: ALL-SIL
[5] = tested on: CCRF-CEM
[6] = tested on: CCRF-HSB2
[7] = tested on: COG-LL-317
[8] = tested on: COG-LL-319h
[9] = tested on: COG-LL-332h
[10] = tested on: COG-LL-355h
[11] = tested on: COG-LL-394h
[12] = tested on: COG-LL-402h
[13] = tested on: DND-41
[14] = tested on: HAL-01
[15] = tested on: HPB-ALL
[16] = tested on: JURKAT
[17] = tested on: KARPAS-45
[18] = tested on: KASUMI-10
[19] = tested on: KASUMI-2
[20] = tested on: KASUMI-9
[21] = tested on: KOPN-8
[22] = tested on: LC4-1
[23] = tested on: MHH-CALL-2
[24] = tested on: MHH-CALL-3
[25] = tested on: MHH-CALL-4
[26] = tested on: MN-60
[27] = tested on: MOLT-14
[28] = tested on: MOLT-16
[29] = tested on: MOLT-4
[30] = tested on: NALL-1
[31] = tested on: NALM-16
[32] = tested on: NALM-6
[33] = tested on: P12-ICHIKAWA
[34] = tested on: P30-OHKUBO
[35] = tested on: PEER
[36] = tested on: PF-382
[37] = tested on: RCH-ACV
[38] = tested on: REH
[39] = tested on: RPMI-8402
[40] = tested on: SEM cells
[41] = tested on: SUP-B15
[42] = tested on: TANOUE
[43] = tested on: TMD5
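Note: ALL cell lines in 384-well plates, five doses spanning 10,000-fold, each plate scaled between vehicle and 100 µmol/L benzalkonium chloride controls, sDSS an adapted area-under-curve metric.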

Which “selective drug sensitivity score” value [1] does the source give for `C[C@@H]1C[C@H](N)C[C@H](c2ccncc2NC(=O)c2ccc(F)c(-c3c(F)cccc3F)n2)C1` [PIM-447] (top concentration 10000 nM) here?
Its value is 19.7.

And the “selective drug sensitivity score” value [2]?
The value was 2.42.

And the “selective drug sensitivity score” value [3]?
The value was 6.42.

What about the “selective drug sensitivity score” value [4] of the same molecule?
Its value is 4.12.

What about the “selective drug sensitivity score” value [5] of the same molecule?
Its value is -5.38.

What about the “selective drug sensitivity score” value [6] of the same molecule?
Its value is 8.92.

What about the “selective drug sensitivity score” value [7] of the same molecule?
Its value is -4.58.

And the “selective drug sensitivity score” value [8]?
The value was -0.48.

What about the “selective drug sensitivity score” value [9] of the same molecule?
The value was -0.08.

What about the “selective drug sensitivity score” value [10] of the same molecule?
Its value is 7.92.

What about the “selective drug sensitivity score” value [11] of the same molecule?
Its value is 1.42.

What about the “selective drug sensitivity score” value [12] of the same molecule?
Its value is -5.18.

What about the “selective drug sensitivity score” value [13] of the same molecule?
Its value is 4.62.

What about the “selective drug sensitivity score” value [14] of the same molecule?
Its value is 1.72.

And the “selective drug sensitivity score” value [15]?
Its value is -5.78.

And the “selective drug sensitivity score” value [16]?
Its value is -5.88.

And the “selective drug sensitivity score” value [17]?
The value was -1.78.

And the “selective drug sensitivity score” value [18]?
Its value is -3.38.

What about the “selective drug sensitivity score” value [19] of the same molecule?
The value was 9.12.

And the “selective drug sensitivity score” value [20]?
Its value is -3.68.

What about the “selective drug sensitivity score” value [21] of the same molecule?
The value was 4.92.

What about the “selective drug sensitivity score” value [22] of the same molecule?
Its value is 1.72.

And the “selective drug sensitivity score” value [23]?
The value was 1.72.

What about the “selective drug sensitivity score” value [24] of the same molecule?
Its value is -0.48.

And the “selective drug sensitivity score” value [25]?
The value was 2.52.

What about the “selective drug sensitivity score” value [26] of the same molecule?
The value was 0.32.

What about the “selective drug sensitivity score” value [27] of the same molecule?
Its value is -2.28.

And the “selective drug sensitivity score” value [28]?
Its value is -5.78.

What about the “selective drug sensitivity score” value [29] of the same molecule?
Its value is -6.18.

And the “selective drug sensitivity score” value [30]?
The value was -1.78.

And the “selective drug sensitivity score” value [31]?
Its value is -5.98.

And the “selective drug sensitivity score” value [32]?
The value was -5.98.

And the “selective drug sensitivity score” value [33]?
The value was -5.68.

What about the “selective drug sensitivity score” value [34] of the same molecule?
Its value is -1.78.

And the “selective drug sensitivity score” value [35]?
The value was -2.38.

What about the “selective drug sensitivity score” value [36] of the same molecule?
Its value is -4.18.

And the “selective drug sensitivity score” value [37]?
Its value is 11.3.

And the “selective drug sensitivity score” value [38]?
The value was 5.62.

What about the “selective drug sensitivity score” value [39] of the same molecule?
The value was -1.88.

What about the “selective drug sensitivity score” value [40] of the same molecule?
Its value is -3.68.

What about the “selective drug sensitivity score” value [41] of the same molecule?
Its value is -1.58.

What about the “selective drug sensitivity score” value [42] of the same molecule?
Its value is -6.48.

What about the “selective drug sensitivity score” value [43] of the same molecule?
The value was -2.78.
